# The other results are listed elsewhere or left out.
# How the values were obtained:
# Test in all cases: glycan array binding signal (z-score within array); higher = stronger binding
# Conditions in all cases: glycan notation: IUPAC condensed, linker removed
# [1] = biological target: Neu5Gc(a2-8)Neu5Gc(a2-3)Gal(b1-4)GlcNAc(b1-3)Gal(b1-4)GlcNAc
# How it was run: (§1)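 Arrays were curated from the Consortium for Functional Glycomics database, 3228 in total, and kept only where the protein sequence was available. Binding is expressed as a within-array Z-score. This score was averaged across arrays of the same protein sequence at different concentrations or buffers and across linkers, and negative values can be read as non-binding.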
# [2] = biological target: Neu5Gc(a2-8)Neu5Gc(a2-6)Gal(b1-4)GlcNAc
# How it was run: as §1
# [3] = biological target: Neu5Gc(b2-6)Gal(b1-4)GlcNAc
# How it was run: as §1
binder,measurement,setting,value
SP15308B-bot-339-22-339 (Bacteroides ovatus) (protein) NEWEDEQYEQYVSFKAPIASGSDGVTTIYVRYKDNGKVTYQLPIIVSGSTVNSQDRDIHIAVDKDTLKTLNIERFSLYRPELWYTEMEEDKYEFPETVHIPAGSCVELLNIDFNLQDIDMLEKWVLPLTIVDDGSYAYQSHPRKNYAKALLKVVPFNNYSGSYTASSMKVYTYINGKPDTNARTTDKRTGYVVDNNSIFFYAGLINEDMDKDMRKKYKINVHFKEDGTLDMKQDDPSNEMEFELIGTPTYSSTSVMDATRPYLERRYVQIMFEYDFQDFTYGGSGTEVIPIKYRVAGSMTLLRNINTQIPDEDQQIEW,glycan array binding signal (z-score),[1],-0.343
same,glycan array binding signal (z-score),[2],-0.21
same,glycan array binding signal (z-score),[3],0.247

# Source: the supplement of paper PMC8728848
